For two molecules, binding results are on record in publication PMC8429736, “Pharmacological characterization of mutant huntingtin aggregate-directed PET imaging tracer candidates” (Scientific Reports, 2021).

The target in test [1] is Q46 (poly-glutamine peptide released from GST-Q46 by thrombin). The test is described as follows: filter-trap assay + thioflavin S fluorescence + electron microscopy; self-assembly into fibrils after tag cleavage: proteins at 30 µM with 150 µg/mL thrombin in 50 mM Tris pH 8.0, 150 mM NaCl, 2 mM CaCl2, 16 h at 37 °C; crude aggregates and pellet after centrifugation analysed; both purified.

Test [2] has as its target HTT(1-89)Q46-His(6x) (released from MBP-HTT(1-89)Q46-His(6x) by thrombin). The description is as above.

Results are given in words; binding and its absence hold for the method and conditions named. Some entries that bind do so weakly or less than the wild type. Tags and fused reporters may be left off the sequences shown.

As for GSQQQQQQQQQQQQQQQQQQQQQQQQQQQQQQQQQQQQQQQQQQQQQQQQ [Q46 (poly-glutamine peptide released from GST-Q46 by thrombin)], the binding result in test [1] was “binds”.

B1: HTT(1-89)Q46-His(6x) (released from MBP-HTT(1-89)Q46-His(6x) by thrombin) (domain or fragment)
chain: GGMATLEKLMKAFESLKSFQQQQQQQQQQQQQQQQQQQQQQQQQQQQQQQQQQQQQQQQQQQQQQQPPPPPPPPPPPQLPQPPPQAQPLLPQPQPPPPPPPPPPGPAVAEEPLHR
For B1, the binding entry in test [2] is reported as “binds”.
